Measured values from publication PMC10195864 (Communications Chemistry, 2023).

Experiment: general procedure: Fmoc solid-phase peptide synthesis; Rink Amide MBHA, Biotin Novatag, Biotin PEG Novatag, Sieber Amide; HATU/DIEA
Details: whole synthesis, cyclic, sequence written open

For (YYTYT-Tz1), the outcome was “The cyclic peptide (YYTYT-Tz1) could not be isolated from the synthesis”.
